This passage reports binding results from doi:10.1101/2024.01.05.574393.

Chains of the proteins cited; added tags and fusions are not shown.
UniProt Q8VHX6: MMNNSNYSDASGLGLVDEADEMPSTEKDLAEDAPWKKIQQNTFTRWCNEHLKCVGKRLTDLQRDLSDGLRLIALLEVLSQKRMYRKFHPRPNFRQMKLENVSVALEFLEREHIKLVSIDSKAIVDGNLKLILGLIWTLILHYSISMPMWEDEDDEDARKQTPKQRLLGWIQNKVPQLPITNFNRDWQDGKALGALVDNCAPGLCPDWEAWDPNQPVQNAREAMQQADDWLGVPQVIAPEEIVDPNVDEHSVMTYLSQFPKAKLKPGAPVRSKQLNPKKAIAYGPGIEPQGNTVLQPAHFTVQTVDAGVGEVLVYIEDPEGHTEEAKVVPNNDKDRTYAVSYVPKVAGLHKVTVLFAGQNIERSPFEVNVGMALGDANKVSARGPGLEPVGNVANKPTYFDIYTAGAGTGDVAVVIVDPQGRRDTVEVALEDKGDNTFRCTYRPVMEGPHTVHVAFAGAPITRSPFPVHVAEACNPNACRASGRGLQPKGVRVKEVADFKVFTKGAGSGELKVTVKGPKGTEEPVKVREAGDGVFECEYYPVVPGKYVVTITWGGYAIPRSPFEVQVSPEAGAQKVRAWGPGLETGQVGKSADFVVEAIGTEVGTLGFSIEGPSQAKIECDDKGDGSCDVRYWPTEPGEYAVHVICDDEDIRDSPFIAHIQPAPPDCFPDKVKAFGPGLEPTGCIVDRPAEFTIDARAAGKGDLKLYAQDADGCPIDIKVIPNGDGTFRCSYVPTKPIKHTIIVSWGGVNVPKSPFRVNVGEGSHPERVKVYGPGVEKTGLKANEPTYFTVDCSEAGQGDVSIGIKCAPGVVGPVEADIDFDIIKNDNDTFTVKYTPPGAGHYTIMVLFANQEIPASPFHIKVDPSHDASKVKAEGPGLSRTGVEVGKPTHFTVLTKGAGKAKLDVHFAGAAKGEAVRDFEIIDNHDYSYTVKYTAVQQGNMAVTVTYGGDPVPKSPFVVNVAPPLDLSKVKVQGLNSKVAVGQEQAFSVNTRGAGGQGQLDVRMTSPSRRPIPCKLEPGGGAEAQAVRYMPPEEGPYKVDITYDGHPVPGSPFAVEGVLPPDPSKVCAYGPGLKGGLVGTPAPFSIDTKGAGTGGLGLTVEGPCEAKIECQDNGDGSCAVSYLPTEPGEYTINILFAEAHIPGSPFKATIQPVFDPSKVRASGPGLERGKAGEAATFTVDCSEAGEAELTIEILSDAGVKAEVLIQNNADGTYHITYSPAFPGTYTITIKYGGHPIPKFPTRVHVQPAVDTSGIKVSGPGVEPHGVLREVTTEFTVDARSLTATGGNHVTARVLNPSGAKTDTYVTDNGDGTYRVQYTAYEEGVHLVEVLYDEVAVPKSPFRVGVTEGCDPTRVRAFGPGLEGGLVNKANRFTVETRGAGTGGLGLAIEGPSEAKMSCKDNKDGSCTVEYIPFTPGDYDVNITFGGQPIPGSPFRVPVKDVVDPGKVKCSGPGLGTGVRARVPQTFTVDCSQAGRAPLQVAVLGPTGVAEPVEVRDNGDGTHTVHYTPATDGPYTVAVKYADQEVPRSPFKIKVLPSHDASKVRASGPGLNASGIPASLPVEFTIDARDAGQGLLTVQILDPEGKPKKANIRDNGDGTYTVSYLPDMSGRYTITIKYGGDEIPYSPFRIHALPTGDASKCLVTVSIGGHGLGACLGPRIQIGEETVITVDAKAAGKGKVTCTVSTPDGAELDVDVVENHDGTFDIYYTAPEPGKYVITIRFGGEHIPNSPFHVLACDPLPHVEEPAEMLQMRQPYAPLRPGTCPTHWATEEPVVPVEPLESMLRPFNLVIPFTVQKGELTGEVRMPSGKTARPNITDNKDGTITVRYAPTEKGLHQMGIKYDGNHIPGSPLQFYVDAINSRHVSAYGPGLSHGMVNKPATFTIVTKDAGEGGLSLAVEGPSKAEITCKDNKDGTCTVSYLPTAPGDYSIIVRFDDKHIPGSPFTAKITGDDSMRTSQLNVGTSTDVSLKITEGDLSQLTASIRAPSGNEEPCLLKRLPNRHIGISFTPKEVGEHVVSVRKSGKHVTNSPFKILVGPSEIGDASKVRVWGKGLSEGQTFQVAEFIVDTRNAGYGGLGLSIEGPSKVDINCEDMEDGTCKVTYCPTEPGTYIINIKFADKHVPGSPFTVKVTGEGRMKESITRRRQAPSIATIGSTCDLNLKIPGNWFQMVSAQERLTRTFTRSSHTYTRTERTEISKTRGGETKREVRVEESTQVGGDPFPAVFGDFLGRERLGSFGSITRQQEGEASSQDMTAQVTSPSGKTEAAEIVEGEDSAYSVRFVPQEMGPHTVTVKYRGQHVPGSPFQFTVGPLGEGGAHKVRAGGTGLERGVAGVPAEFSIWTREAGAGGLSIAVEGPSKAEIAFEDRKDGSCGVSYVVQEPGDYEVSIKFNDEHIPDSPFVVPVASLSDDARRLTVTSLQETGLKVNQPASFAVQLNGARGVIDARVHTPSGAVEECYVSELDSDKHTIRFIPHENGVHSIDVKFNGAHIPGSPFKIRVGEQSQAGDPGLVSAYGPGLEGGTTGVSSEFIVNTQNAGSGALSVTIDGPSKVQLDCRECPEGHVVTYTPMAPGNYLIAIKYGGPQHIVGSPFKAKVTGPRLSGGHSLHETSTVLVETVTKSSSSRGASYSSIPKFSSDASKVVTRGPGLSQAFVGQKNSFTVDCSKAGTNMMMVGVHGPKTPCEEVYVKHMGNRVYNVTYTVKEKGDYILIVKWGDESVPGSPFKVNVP
UniProt P35385: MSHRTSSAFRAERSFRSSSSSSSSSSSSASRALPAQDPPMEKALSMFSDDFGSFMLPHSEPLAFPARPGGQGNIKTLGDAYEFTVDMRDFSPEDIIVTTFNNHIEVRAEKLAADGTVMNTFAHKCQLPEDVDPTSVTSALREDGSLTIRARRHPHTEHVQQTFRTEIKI

Assay [1] deals with filamin C (FLNC), endogenous in mouse ventricular tissue (mouse (endogenous in ventricular tissue)) (UniProt Q8VHX6). Nature of the assay: co-IP.
The target in assay [2] is HSPB7ΔN (residues 78-175 of isoform 2) (human) (UniProt Q9UBY9). The assay is described as follows: native MS.

No constants are given. Whether binding was seen depends on the method and setting. For some assays here: In cells and extracts the contact can be indirect. Some binding calls cover weakened binding; strength is not graded here.

Turning to “HSPB7, endogenous in mouse ventricular tissue (from UniProt P35385 1-169)”, the binding entry in assay [1] was “binds”. Turning to “HSPB7ΔN (residues 78-175 of isoform 2) (from UniProt Q9UBY9-2 78-175) (domain or fragment)”, the binding entry in assay [2] is given as “no binding (tested: ~10 μM)”.
